Measured values taken from US20130004959A1, “SCREENING DEVICE CONTAINING NANOG PROMOTER, SOX2 PROMOTER, LIN 28 PROMOTER, OCT4 PROMOTER AND LUCIFERASE GENE AND SCREENING METHOD THEREOF” (NATIONAL CENTRAL UNIVERSITY, priority 2011, published 2013).
At least one structure is not confirmed: it was looked up by name or label, or the drawing left a doubt.

Tested on: Nanog promoter, Sox2 promoter, Lin28 promoter, Oct4 promoter
Assay: Luciferase assay in the screening device (cells stably carrying pStable promoter-Luc reporter plasmids)
Assay type: cell-based, mouse
Settings: 100 nM RA, reacted with cells for 24 hours, "24 hr cell"; C2C12 / P19 stable clones

CC1=C(/C=C/C(C)=C/C=C/C(C)=C/C(=O)O)C(C)(C)CCC1 [RA, retinoic acid]
level of Luciferase (luminescence expression): decreases the level of Luciferase
